Laboratory results taken from patent US6420147B1, “Haloalkaliphilic microorganisms” (Genencor International, Inc., priority 1991, dated 2002).
At least one structure is not confirmed: it was looked up by name or label, or the drawing left a doubt.

Assays:
Assay in all cases: Antibiotic sensitivity (susceptibility test disks on Medium A agar)
Assay type in all cases: cell-based
Conditions in all cases: antibiotic disks (contents in Appendix C), 37° C., up to 14 days
[1] = tested on: Strain 103Nt.4
Protocol: (§1) A light suspension of bacteria in alkaline, saline, nutrient broth was spread on the surface of alkaline nutrient, saline agar (Medium A) and allowed to dry. Commercially available antibiotic susceptibility test disks (Oxoid or Mast Laboratories: Merseyside, U.K.) were applied to the agar surface. The bacteria were cultivated at 37° C. for up to 14 days. Clear zones around the antibiotic disks indicated sensitivity and were recorded as positive.

[2] = tested on: Strain 31M.4
Protocol: as §1

[3] = tested on: Strain 931LM.4
Protocol: as §1

[4] = tested on: Strain 98Nt.4
Protocol: as §1

[5] = tested on: Strain 95LM.4
Protocol: as §1

[6] = tested on: Strain 93dLM.4
Protocol: as §1

Structure (SMILES) | Inhibition of growth by antibiotic [1] | Inhibition of growth by antibiotic [2] | Inhibition of growth by antibiotic [3] | Inhibition of growth by antibiotic [4] | Inhibition of growth by antibiotic [5] | Inhibition of growth by antibiotic [6]
NC[C@H]1O[C@H](O[C@H]2[C@H](O)[C@@H](O[C@H]3O[C@H](CO)[C@@H](O)[C@H](N)[C@H]3O)[C@H](N)C[C@@H]2N)[C@H](O)[C@@H](O)[C@@H]1O [kanamycin] | inhibited | – | – | – | – | –
CN(C)[C@@H]1C(O)=C(C(N)=O)C(=O)[C@@]2(O)C(O)=C3C(=O)c4c(O)cccc4[C@@](C)(O)[C@H]3C[C@@H]12 [tetracycline] | inhibited | inhibited | inhibited | – | – | –
CO[C@H]1/C=C/O[C@@]2(C)Oc3c(C)c(O)c4c(O)c(c(/C=N/N5CCN(C)CC5)c(O)c4c3C2=O)NC(=O)/C(C)=C\C=C\[C@H](C)[C@H](O)[C@@H](C)[C@@H](O)[C@@H](C)[C@H](OC(C)=O)[C@@H]1C [rifampicin] | – | – | – | inhibited | inhibited | inhibited
